According to PMC10117145:
These are yes or no findings as the source states them, for the method shown. Some binding calls cover weakened binding; strength is not graded here. For some assays here: Tags and fused reporters may be left off the sequences shown.

Sequences of proteins named here, by UniProt entry; tags and fusion partners are left off.
UniProt P9WHY2: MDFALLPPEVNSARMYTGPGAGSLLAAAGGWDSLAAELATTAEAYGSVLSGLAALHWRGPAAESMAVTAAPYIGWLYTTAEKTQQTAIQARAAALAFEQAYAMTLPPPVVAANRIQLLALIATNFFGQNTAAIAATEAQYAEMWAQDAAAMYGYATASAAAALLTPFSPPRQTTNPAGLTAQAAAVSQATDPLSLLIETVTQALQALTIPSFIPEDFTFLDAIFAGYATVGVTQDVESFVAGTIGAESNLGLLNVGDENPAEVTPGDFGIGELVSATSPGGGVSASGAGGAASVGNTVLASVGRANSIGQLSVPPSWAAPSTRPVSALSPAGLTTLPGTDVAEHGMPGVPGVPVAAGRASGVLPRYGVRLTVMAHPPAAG

Experiments:
[1] = target: Recombinant PPE51_(6His) refolded in 0.1% DDM (Mycobacterium tuberculosis) (UniProt P9WHY2); assay: SEC; both purified
[2] = target: Recombinant PPE64_(6His) refolded in 0.1% DDM (Mycobacterium tuberculosis) (UniProt Q6MWW0); assay: SEC; both purified

Molecule	binding [1]	binding [2]
Recombinant PPE51_(6His) refolded in 0.1% DDM (from UniProt P9WHY2 1-380)	binds	–
Recombinant PPE64_(6His) refolded in 0.1% DDM (protein, UniProt Q6MWW0 1-552) MAHFSVLPPEINSLRMYLGAGSAPMLQAAAAWDGLAAELGTAASSFSSVTTGLTGQAWQGPASAAMAAAAAPYAGFLTTASAQAQLAAGQAKAVASVFEAAKAAIVPPAAVAANREAFLALIRSNWLGLNAPWIAAVESLYEEYWAADVAAMTGYHAGASQAAAQLPLPAGLQQFLNTLPNLGIGNQGNANLGGGNTGSGNIGNGNKGSSNLGGGNIGNNNIGSGNRGSDNFGAGNVGTGNIGFGNQGPIDVNLLATPGQNNVGLGNIGNNNMGFGNTGDANTGGGNTGNGNIGGGNTGNNNFGFGNTGNNNIGIGLTGNNQMGINLAGLLNSGSGNIGIGNSGTNNIGLFNSGSGNIGVFNTGANTLVPGDLNNLGVGNSGNANIGFGNAGVLNTGFGNASILNTGLGNAGELNTGFGNAGFVNTGFDNSGNVNTGNGNSGNINTGSWNAGNVNTGFGIITDSGLTNSGFGNTGTDVSGFFNTPTGPLAVDVSGFFNTASGGTVINGQTSGIGNIGVPGTLFGSVRSGLNTGLFNMGTAISGLFNLRQLLG	–	binds
